Laboratory results: PubChem BioAssay AID760 (NMMLSC, 2007)
The campaign covered roughly 190,000 compounds. About 360 (0.19%) were called active. All entries are inconclusive by the source's own rule. Clear calls are listed elsewhere.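 Rule for the calls: active = GTP binding activity at least 20 points away from 100%, either lowered or raised; inconclusive = signal likely due to the compound's own green fluorescence; inactive = the rest.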

Molecular target: Ras-related protein Rab-2A (Canis lupus familiaris) (UniProt P61105)
Experiment: modulators of GTP binding to Rab2A wildtype, primary screen, biochemical, dog, bead-based flow cytometry, multiplex (AID 760);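 note: 0% = beads with excess unlabeled GTP and 100% = no-compound control corrected for plate trend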
Conditions: GST-Rab2 wt beads, Bodipy-GTP binding, at 10 µM

| Structure (SMILES) | GTP binding activity |
| --- | --- |
| CC(C)c1ccc(OP(C)(=O)Nc2ccc(SC(F)(F)F)cc2)cc1 (stereo unspecified) | inconclusive: 94% |
